Results on one compound are retold here after ChEMBL document CHEMBL4732263 (Bioorg Med Chem, 2021).

Protein sequences, listed by entry. Tags and fused reporters are not part of them. Lines headed by an entry give the natural chain unless they say otherwise; changes in a name come on top.
UniProt Q12809: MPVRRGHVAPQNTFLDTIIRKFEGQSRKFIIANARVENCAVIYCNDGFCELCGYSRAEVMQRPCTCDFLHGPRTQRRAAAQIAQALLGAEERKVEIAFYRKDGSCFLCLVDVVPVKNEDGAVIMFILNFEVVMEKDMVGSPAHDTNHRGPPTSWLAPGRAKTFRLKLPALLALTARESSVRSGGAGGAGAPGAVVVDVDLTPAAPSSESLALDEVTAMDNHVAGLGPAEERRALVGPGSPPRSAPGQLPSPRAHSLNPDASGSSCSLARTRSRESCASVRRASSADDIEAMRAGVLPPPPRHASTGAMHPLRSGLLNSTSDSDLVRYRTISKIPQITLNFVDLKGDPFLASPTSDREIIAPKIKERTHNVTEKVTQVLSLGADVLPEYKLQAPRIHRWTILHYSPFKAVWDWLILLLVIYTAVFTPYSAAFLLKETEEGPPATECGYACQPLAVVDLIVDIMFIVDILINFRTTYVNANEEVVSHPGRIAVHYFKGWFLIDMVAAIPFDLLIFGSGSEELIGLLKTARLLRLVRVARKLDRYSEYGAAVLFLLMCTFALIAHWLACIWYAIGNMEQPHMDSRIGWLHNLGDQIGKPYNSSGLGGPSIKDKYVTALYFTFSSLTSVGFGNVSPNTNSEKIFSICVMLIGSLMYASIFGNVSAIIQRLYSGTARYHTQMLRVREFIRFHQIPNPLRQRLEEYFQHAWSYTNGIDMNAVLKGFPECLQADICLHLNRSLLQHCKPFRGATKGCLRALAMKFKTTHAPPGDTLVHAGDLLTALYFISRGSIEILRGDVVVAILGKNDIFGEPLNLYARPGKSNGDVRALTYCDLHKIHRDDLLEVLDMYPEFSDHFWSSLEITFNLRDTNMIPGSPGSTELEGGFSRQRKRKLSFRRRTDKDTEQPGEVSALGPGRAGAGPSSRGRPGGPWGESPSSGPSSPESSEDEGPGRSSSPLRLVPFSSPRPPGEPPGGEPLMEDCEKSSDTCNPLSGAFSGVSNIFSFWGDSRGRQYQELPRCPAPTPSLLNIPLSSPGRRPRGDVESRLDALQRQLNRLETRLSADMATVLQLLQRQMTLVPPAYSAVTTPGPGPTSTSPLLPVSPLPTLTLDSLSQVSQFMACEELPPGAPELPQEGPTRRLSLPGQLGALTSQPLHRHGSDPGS

Structures are written as SMILES. In brackets after ≈: the same amount, converted by molar mass.

A short description of series [1]: physchem. Conditions: buffer, pH 6.5.
Series [2] can be described thus: physchem. The conditions noted are these: buffer, pH 2.
Series [3] in a line: physchem. The conditions noted are these: octanol/water, pH 7.4.
Series [4] concerns the target Voltage-gated inwardly rectifying potassium channel KCNH2 (Homo sapiens, UniProt Q12809).

One may read the solubility (kinetic) as the concentration staying in solution when a stock, usually in DMSO, is diluted into the medium. As a reminder, the logD is the decadic logarithm of the distribution of all forms, ionised or not, between an organic phase and buffer at a given pH. A low value points to lower lipophilicity. Broadly, the IC50 is the point on the concentration scale where inhibition reaches its midpoint. A higher IC50 goes with lower potency. With `N=C(N)NC(=O)c1nc(-c2cc3ccccc3o2)c(N)nc1N`, the values for the kinetic solubility in the series “physchem [1]” and in “physchem [2]” were 6.3 µg/mL (≈ 20.2 µM) and above 100 µg/mL, respectively. The compound also gave a log distribution coefficient (logD) in the series “physchem [3]” of 2.8. This compound also yielded an IC50 in series [4] of 6.9 µM.
